No constants are given. Whether binding was seen depends on the method and setting. In cells and extracts the contact can be indirect. Some binding calls cover weakened binding; strength is not graded here.

The chains behind the UniProt entries cited, without tags or fusion partners.
UniProt Q92769: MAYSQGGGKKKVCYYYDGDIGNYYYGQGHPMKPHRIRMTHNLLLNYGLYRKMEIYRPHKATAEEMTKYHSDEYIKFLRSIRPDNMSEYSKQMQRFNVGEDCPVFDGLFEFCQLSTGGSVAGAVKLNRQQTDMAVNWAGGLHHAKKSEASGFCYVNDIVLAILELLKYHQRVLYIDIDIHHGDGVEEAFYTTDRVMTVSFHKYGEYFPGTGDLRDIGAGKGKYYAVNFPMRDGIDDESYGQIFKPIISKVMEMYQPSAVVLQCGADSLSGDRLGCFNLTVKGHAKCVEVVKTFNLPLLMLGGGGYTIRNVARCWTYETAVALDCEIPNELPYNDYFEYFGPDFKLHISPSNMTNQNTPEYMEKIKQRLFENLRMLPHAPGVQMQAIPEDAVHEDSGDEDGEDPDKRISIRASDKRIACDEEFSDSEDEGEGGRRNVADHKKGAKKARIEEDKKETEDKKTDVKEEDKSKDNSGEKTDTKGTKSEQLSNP
UniProt P51608: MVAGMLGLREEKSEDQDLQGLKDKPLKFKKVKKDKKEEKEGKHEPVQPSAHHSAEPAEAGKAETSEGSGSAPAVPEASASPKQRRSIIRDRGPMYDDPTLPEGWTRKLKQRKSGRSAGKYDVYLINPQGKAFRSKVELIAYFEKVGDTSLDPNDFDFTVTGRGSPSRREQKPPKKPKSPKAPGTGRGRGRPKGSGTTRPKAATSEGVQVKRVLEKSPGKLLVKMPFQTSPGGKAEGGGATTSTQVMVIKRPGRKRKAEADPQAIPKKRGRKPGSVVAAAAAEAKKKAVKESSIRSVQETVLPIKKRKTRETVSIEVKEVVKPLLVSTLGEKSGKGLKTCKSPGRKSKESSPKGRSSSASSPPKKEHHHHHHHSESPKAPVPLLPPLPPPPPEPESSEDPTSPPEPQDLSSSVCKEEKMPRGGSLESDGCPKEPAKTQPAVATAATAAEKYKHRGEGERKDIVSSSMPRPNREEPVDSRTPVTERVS

For the experiment, the target named is histone deacetylase (HDAC) 2 (human (endogenous in WI-38)) (UniProt Q92769). The experiment in a line: co-IP; WI-38 cell lysates, cells with or without ET-1 stimulation for 20 min; supernatants incubated with protein A/G beads and antibodies specific for HDAC2, Sin3A or MeCP2 at 4 °C overnight; partners detected by Western blotting.

For “methyl-CpG-binding protein (MeCP) 2 (from UniProt P51608 1-486)”, the binding entry is on record as “binds”.

(Values after PMC10265878.)
